# The list shows only some results of the screen, not a fair sample: it is rich in T/C values a quarter to a half above the control, in often repeated tests (any T/C) and in doses without a T/C. Further doses and runs are listed elsewhere. T/C gives the treated animals as a percentage of the vehicle group. Some doses have a count of surviving animals in place of a T/C: the source files T/C as zero there, which appears to mark a toxic dose or a test without result, not a measured value. Some survivor counts are full or nearly so, which does not show that the dose was tolerated: survival well below the control is almost never listed, so the zero probably covers shortened survival too. Survivors were counted at the toxicity check, usually on the fifth day, unless a day is given; later deaths do not show. Schedule codes are those of the source, taken here to give the interval after Q, in days (D) or hours (H), and the number of doses after X. Some structures stand for samples that the source files as different forms (salt, stereo form or complex); doses refer to the form tested. Some entries were tested several times; the results are listed from low to high. Where survival is the endpoint, the PubChem record calls one and a half times the control and up active, and a quarter to a half above the control has no call in these data; cut-offs in other NCI protocols can differ.
# Tested on: CD2F1 mice, L1210 leukemia ip, survival T/C
# Experiment: NCI In Vivo Anticancer Drug Screen. Data for tumor model L1210 Leukemia (intraperitoneal) in CD2F1 (CDF1) mice
# Conditions: higher T/C = longer survival
# How it was run: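 Activity against a transplanted murine tumor was judged by comparing the compound group with a vehicle group. The outcome in the treated animals was divided by that in the controls.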
# [1] = T/C endpoint: mean survival time, dose: 400.0 mg/kg/injection, schedule: Q01DX001 (ip), vehicle: saline with Tween-80
# [2] = T/C endpoint: mean survival time, dose: 300.0 mg/kg/injection, schedule: Q01DX001 (ip), vehicle: other
# [3] = T/C endpoint: mean survival time, dose: 50.0 mg/kg/injection, schedule: Q01DX009 (ip), vehicle: Klucel (hydroxypropylcellulose) (HPC)
# [4] = T/C endpoint: mean survival time, dose: 100.0 mg/kg/injection, schedule: Q01DX009 (ip), vehicle: Klucel (hydroxypropylcellulose) (HPC)
# [5] = T/C endpoint: mean survival time, dose: 400.0 mg/kg/injection, schedule: Q01DX009 (ip), vehicle: saline with Tween-80
smiles,measurement,setting,value
CC1(C)CC(NC2=NCCO2)CC(C)(C)N1,survivor count,"T/C endpoint: mean survival time, dose: 100.0 mg/kg/injection, schedule: Q01DX001 (ip), vehicle: saline with Tween-80",2 of 6
same,survivor count,"T/C endpoint: mean survival time, dose: 200.0 mg/kg/injection, schedule: Q01DX001 (ip), vehicle: saline with Tween-80",0 of 6
same,survivor count,[1],0 of 6
C=CC[P+](c1ccccc1)(c1ccccc1)c1ccccc1,survivor count,"T/C endpoint: mean survival time, dose: 25.0 mg/kg/injection, schedule: Q01DX001 (ip), vehicle: saline",1 of 3
same,survivor count,"T/C endpoint: mean survival time, dose: 50.0 mg/kg/injection, schedule: Q01DX001 (ip), vehicle: saline",0 of 3 and 1 of 3
same,survivor count,"T/C endpoint: mean survival time, dose: 75.0 mg/kg/injection, schedule: Q01DX001 (ip), vehicle: other",2 of 6
same,survivor count,"T/C endpoint: mean survival time, dose: 75.0 mg/kg/injection, schedule: Q01DX001 (ip), vehicle: saline",0 of 6
same,survivor count,"T/C endpoint: mean survival time, dose: 100.0 mg/kg/injection, schedule: Q01DX001 (ip), vehicle: saline",0 of 3
same,survivor count,"T/C endpoint: mean survival time, dose: 150.0 mg/kg/injection, schedule: Q01DX001 (ip), vehicle: other",2 of 6
same,survivor count,"T/C endpoint: mean survival time, dose: 150.0 mg/kg/injection, schedule: Q01DX001 (ip), vehicle: saline",0 of 6
same,survivor count,[2],0 of 6
same,survivor count,"T/C endpoint: mean survival time, dose: 300.0 mg/kg/injection, schedule: Q01DX001 (ip), vehicle: saline",0 of 6
CCNCc1cc(Nc2cc(C)nc(/N=C(\N)Nc3ccc(Cl)c(Cl)c3)n2)ccc1OC,survivor count,[3],2 of 6
same,survivor count,[4],0 of 6
NC1CCCCC1N.O=S(=O)([O-])c1ccccc1S(=O)(=O)[O-].[Pt+4],survivor count,"T/C endpoint: median survival time, dose: 50.0 mg/kg/injection, schedule: Q04DX003 (ip), vehicle: saline",6 of 6
same,survivor count,"T/C endpoint: median survival time, dose: 100.0 mg/kg/injection, schedule: Q04DX003 (ip), vehicle: saline",6 of 6
same,survivor count,"T/C endpoint: median survival time, dose: 200.0 mg/kg/injection, schedule: Q04DX003 (ip), vehicle: saline",5 of 6
CC(=O)Nc1cc(CN2CCCCC2)c(O)c2ncccc12,survivor count,[2],3 of 6
CC1(C)N=C(N)N=C(N)N1c1ccc(C(C#N)CCCc2ccccc2)cc1 (stereo not drawn),survivor count,[3],3 of 3
same,survivor count,[4],0 of 3
same,survivor count,"T/C endpoint: mean survival time, dose: 200.0 mg/kg/injection, schedule: Q01DX009 (ip), vehicle: Klucel (hydroxypropylcellulose) (HPC)",0 of 3
O=C1C(=O)c2ccccc2C(O)=C1C(C1=C(O)c2ccccc2C(=O)C1=O)c1ccccc1Br,survivor count,"T/C endpoint: mean survival time, dose: 200.0 mg/kg/injection, schedule: Q01DX009 (ip), vehicle: saline with Tween-80",5 of 6
same,survivor count,[5],2 of 6
CC12C(=O)C=CCC1=CCC1C2CCC2(O)C(=O)OC3(C)C4CC5(C)C(COC16OC23C5C6=O)C(=O)O4 (stereo not drawn),survivor count,"T/C endpoint: median survival time, dose: 400.0 mg/kg/injection, schedule: Q01DX009 (ip), vehicle: Klucel (hydroxypropylcellulose) (HPC)",2 of 6
CSc1ccccc1C1=CCCCCC1,survivor count,[1],5 of 6
Cc1nc(C(=O)O)c(C(=O)O)[nH]1,survivor count,[5],0 of 6
same,survivor count,"T/C endpoint: mean survival time, dose: 400.0 mg/kg/injection, schedule: Q04DX003 (ip), vehicle: saline with Tween-80",2 of 6
O=C(O)CC(=O)O.[NH-]CCC1CCCC[N-]1.[Pt+2] (stereo not drawn),T/C,"T/C endpoint: mean survival time, dose: 100.0 mg/kg/injection, schedule: Q04DX003 (ip), vehicle: distilled water + Tween-80",127 % of control
same,T/C,"T/C endpoint: mean survival time, dose: 100.0 mg/kg/injection, schedule: Q04DX003 (ip), vehicle: water",138 % of control
same,survivor count,"T/C endpoint: mean survival time, dose: 200.0 mg/kg/injection, schedule: Q04DX003 (ip), vehicle: distilled water + Tween-80",2 of 6
same,survivor count,"T/C endpoint: mean survival time, dose: 200.0 mg/kg/injection, schedule: Q04DX003 (ip), vehicle: water",4 of 6
same,survivor count,"T/C endpoint: mean survival time, dose: 400.0 mg/kg/injection, schedule: Q04DX003 (ip), vehicle: water",0 of 6
CC(=O)NC1=NC(=O)/C(=C/Cc2cccs2)N1C,survivor count,[5],0 of 6
